# Data taken from patent publication US20220162285A1.
# No constants are given. Whether binding was seen depends on the method and setting. Some results given as binding are weak or reduced against the parent protein; the word gives no strength.
# T1: recombinant human CD20 protein (Abcam) (human) (UniProt P11836)
# T1 sequence (looked up): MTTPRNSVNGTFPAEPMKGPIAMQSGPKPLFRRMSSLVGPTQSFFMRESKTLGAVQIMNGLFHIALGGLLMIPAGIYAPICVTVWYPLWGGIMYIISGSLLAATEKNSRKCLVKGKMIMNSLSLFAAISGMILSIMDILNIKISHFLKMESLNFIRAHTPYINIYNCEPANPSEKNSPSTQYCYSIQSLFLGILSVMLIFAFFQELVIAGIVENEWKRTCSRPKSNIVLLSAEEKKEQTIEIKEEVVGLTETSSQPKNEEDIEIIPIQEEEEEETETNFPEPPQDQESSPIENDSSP
# B1: Quad 53 Mon (monovalent anti-CD20 scFv control) (scFv)
# scFv: DIVLTQSPAILSASPGEKVTMTCRASSSVNYMDWYQKKPGSSPKPWIYATSNLASGVPARFSGSGSGTSYSLTISRVEAEDAATYYCQQWSFNPPTFGGGTKLEIKGSTSGGGGSGGGGSGGGGSSEVQLQQSGAELVKPGASVKMSCKASGYTFTSYNMHWVKQTPGQGLEWIGAIYPGNGDTSYNQKFKGKATLTADKSSSTAYMQLSSLTSEDSADYYCARSNYYGSSYWFFDVWGAGTTVTVSS
# Key:
# [1] = target: T1, recombinant human CD20 protein (Abcam) (human); assay: direct binding ELISA on coated recombinant CD20 (FIG. 26D)
# [2] = target: T1, recombinant human CD20 protein (Abcam) (human); assay: direct binding ELISA on coated CD20, side-by-side comparison of valencies
binder,measurement,setting,value
B1,binding,[1],binds
same,binding,[2],binds
